The target in this experiment is FLAG-tagged WT-CCDC105 (mouse) (UniProt Q9D4K7). In words: co-IP.

The chains behind the UniProt entries cited, without tags or fusion partners. Where a name states a change or a piece, a line headed by the entry shows the natural chain unless it says otherwise. A line that says so, or that is headed by a name, gives the form on record, which may keep a tag or linker.
UniProt Q9D4K7: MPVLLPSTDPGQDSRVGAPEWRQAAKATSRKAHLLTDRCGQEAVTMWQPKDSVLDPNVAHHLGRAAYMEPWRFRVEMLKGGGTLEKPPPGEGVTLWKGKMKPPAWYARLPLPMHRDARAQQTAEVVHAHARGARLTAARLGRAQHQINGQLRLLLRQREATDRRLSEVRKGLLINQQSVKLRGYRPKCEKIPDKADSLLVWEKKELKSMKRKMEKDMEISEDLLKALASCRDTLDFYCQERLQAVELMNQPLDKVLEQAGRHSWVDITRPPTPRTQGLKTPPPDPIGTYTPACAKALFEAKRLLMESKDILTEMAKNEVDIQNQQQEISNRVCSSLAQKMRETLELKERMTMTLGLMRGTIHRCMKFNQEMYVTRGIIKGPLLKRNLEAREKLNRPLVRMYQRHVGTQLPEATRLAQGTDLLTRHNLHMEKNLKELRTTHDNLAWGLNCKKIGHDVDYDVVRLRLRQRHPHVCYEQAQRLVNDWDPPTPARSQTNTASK
MYC-tagged CFAP77 (A0A087WRI3-2, form named): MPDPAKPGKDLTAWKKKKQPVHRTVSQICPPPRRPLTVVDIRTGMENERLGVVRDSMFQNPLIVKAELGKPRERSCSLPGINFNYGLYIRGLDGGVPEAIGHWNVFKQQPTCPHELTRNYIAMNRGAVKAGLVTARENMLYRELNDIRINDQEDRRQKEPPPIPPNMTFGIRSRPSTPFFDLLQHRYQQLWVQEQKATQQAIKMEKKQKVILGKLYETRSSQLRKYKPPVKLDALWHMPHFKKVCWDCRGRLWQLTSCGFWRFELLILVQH

These are yes or no findings as the source states them, for the method shown. Binding seen in cells or lysates may run through a third protein. Some results given as binding are weak or reduced against the parent protein; the word gives no strength.

Our source for the binding values is paper doi:10.1101/2025.02.23.639767.

For “HA-tagged WT-CFAP77 (from UniProt A0A087WRI3-2 1-271)”, the binding entry is “binds”.
For the substance “MYC-tagged CFAP77 (from UniProt A0A087WRI3-2 1-271)”, the binding result is on record as “binds”.
